This data set concerns Sf9 cell ramp membrane current. In words: Whole-cell patch-clamp: blockage of Sf9 cell ramp membrane current. The data set is classed as cell-based, Spodoptera frugiperda. As to conditions: Hill fit of concentration-response of ramp membrane current block at +50 mV, Sf9 cells, n = 9 (AG41), n = 8 (PA1b). The method, then:
We further investigated the AG41’s biological activity by performing an electrophysiological experiment on cultured Sf9 cells to check whether its cell-membrane ion transport alteration differed from that of PA1b, the model pea peptide. […] At 35 nM, AG41 decreased by approximately 35 % the ramp current amplitude measured at +50 mV (from 68 pA to 44 pA), while a similar concentration of 37.5 nM PA1b had no effect (trace from AG41 even differed from control at 3.5 nM).
Current recordings were made at room temperature, under voltage clamp using the whole-cell configuration of the patch-clamp technique. Command voltage and data acquisition were performed with pClamp software (Axon Instruments, Foster city, CA, USA). The holding potential was −80 mV. Membrane currents were evoked, every 10 s, by voltage ramps of 1.5 s in duration applied from −100 to 90 mV, filtered at 300 Hz and sampled at 1 kHz with an analogue-to-digital converter (Labmaster TM 40, Scientific Solutions Inc., Solon OH, USA). The external solution contained (in mM): 135 NaCl, 4 KCl, 2 MgCl2, 10 CaCl2 and 10 Mes, adjusted to pH 6.4 with NaOH. The internal solution contained (in mM): 140 K-aspartate, 1 MgCl2, 3 K2-ATP, 5 EGTA and 5 Hepes, adjusted to pH 7.2 with KOH. […]
Biological results are expressed as the mean ± S.E.M., n indicating the number of Sf9 cells studied (electrophysiology). […]
A general note: Patch clamp records ionic current or voltage across a cell membrane.

Bridge positions count the residues as written; N and C are the ends. Ends that are not written are not given here. Peptide text beside a SMILES is read from it.

By Hill coefficient is commonly meant a measure of the steepness of the concentration-response curve. In the case of `CC[C@H](C)[C@@H]1NC(=O)[C@H](C(C)C)NC(=O)[C@H](CC(C)C)NC(=O)CNC(=O)[C@H](C(C)C)NC(=O)[C@@H]2CCCN2C(=O)[C@H]([C@@H](C)CC)NC(=O)[C@@H]2CSSC[C@@H]3NC(=O)[C@H](C(C)C)NC(=O)CNC(=O)[C@H](CC(N)=O)NC(=O)[C@@H](NC(=O)[C@H](CO)NC(=O)[C@H](C)N)CSSC[C@H](NC(=O)[C@H](C)NC(=O)[C@H](CO)NC(=O)[C@H]([C@@H](C)O)NC(=O)CNC(=O)[C@H](CSSC[C@@H](C(=O)N[C@@H](CCCNC(=N)N)C(=O)N[C@@H](CC(N)=O)C(=O)N4CCC[C@H]4C(=O)N[C@@H](CO)C(=O)NCC(=O)O)NC(=O)[C@H](Cc4ccc(O)cc4)NC(=O)CNC1=O)NC(=O)[C@@H]1CCCN1C(=O)[C@@H]1CCCN1C(=O)[C@H](CCSC)NC(=O)[C@H](CCC(=O)O)NC(=O)[C@H](Cc1ccccc1)NC(=O)[C@@H]1CCCN1C(=O)[C@H](CO)NC3=O)C(=O)N[C@@H](CCCNC(=N)N)C(=O)N2` [PA1b, reference compound] (H-ASCNGVCSPFEMPPCGTSACRCIPVGLVIGYCRNPSG-OH; disulfide 3-20, 7-22, 15-32; N-terminus and C-terminus assumed), the Hill coefficient is given as 1.7 ± 0.2.

The compound “ASCPNVGAVCSPFETKPCGNVKDCRCLPWGLFFGTCINPTG (disulfide 3-24, 10-26, 18-36 (inferred)) [AG41]” returned a Hill coefficient of 1.4 ± 0.1.

Source of the values: PMC4785745, “Genome-wide analysis identifies gain and loss/change of function within the small multigenic insecticidal Albumin 1 family of Medicago truncatula” (BMC Plant Biology, 2016).
